# Test results as given in the supplement of paper PMC11348887.
# Structures can show the parent of a compound that is named as a salt. The list shows a part of the results. Most entries show no effect beyond the scatter of the controls.
# Experiments:
# Settings in all cases: 5 µM; treatment: days 7-14 after plating, readout day 21
# [1] = tested on: hPSC-derived cortical neurons (WA09); test: nucleus area z-score vs screen plate; higher = larger nuclei (more mature)
# [2] = tested on: hPSC-derived cortical neurons (WA09); test: total neurite length per nucleus (MAP2) z-score; higher = more neurite growth
# [3] = tested on: hPSC-derived cortical neurons (WA09); test: nucleus roundness z-score vs screen plate; higher = rounder nuclei (more mature)
# [4] = tested on: hPSC-derived cortical neurons (WA09); test: KCl-induced FOS+/EGR-1+ double-positive nuclei fraction z-score (KCl minus unstimulated); higher = stronger activity-induced IEG response
Compound,nucleus area z-score [1],total neurite length per nucleus (z-score) [2],nucleus roundness z-score [3],KCl-induced FOS+/EGR-1+ double-positive nuclei fraction z-score [4]
Nc1nccs1 [Aminothiazole],-0.629,0.186,0.291,-0.509
S=C(NCc1ccc2c(c1)OCO2)N1CCN(c2ncnc3c2oc2ccccc23)CC1 [Amuvatinib (MP-470)],-0.0153,0.0498,0.93,1.66
NS(=O)(=O)c1cc2c(cc1Cl)N=C(CSCc1ccccc1)NS2(=O)=O [Benzthiazide],-0.086,0.534,-0.275,0.0898
Cc1ccc(CNc2ncnc3ccc(-c4ccc(CO)o4)cc23)o1,1,0.354,-0.818,1.26
CCCC(C(=O)OCCN(CC)CC)(c1ccccc1)c1ccccc1 [Proadifen HCl],-1.29,-1.7,-1.66,-0.411
Cc1cc(CS(=O)(=O)c2ccccc2)cc(OCc2ccc(CN3CCC[C@@H]3CO)cc2)c1,-0.0931,-1.96,-1.16,0.932
CN1CCN(c2cc3c(cc2F)c(=O)c(C(=O)O)cn3-c2ccc(F)cc2)CC1 [Difloxacin HCl],0.507,0.0311,0.652,0.606
O=C(CCc1ccc(O)cc1)c1c(O)cc(O)cc1O [Phloretin],0.825,0.879,0.0178,2.75
CCN1CCN(Cc2ccc(-c3cc4c(N[C@H](C)c5ccccc5)ncnc4[nH]3)cc2)CC1,0.811,-0.0383,0.294,-0.388
CCOc1ccc2nc3cc(N)ccc3c(N)c2c1 [Ethacridine lactate monohydrate],-12.9,-4.86,-5.17,-0.549
Cn1ccnc1S [Methimazole],0.677,0.0518,-0.141,0.127
CS(=O)(=O)c1ccc([C@@H](O)[C@@H](CO)NC(=O)C(Cl)Cl)cc1 [Thiamphenicol],-0.211,-1.47,-0.707,-0.415
CC(C(=O)O)c1ccc(-c2ccccc2)c(F)c1 (centres undefined) [Flurbiprofen],-0.155,0.692,0.186,0.46
CCN(CCCOc1ccc2c(Nc3cc(CC(=O)Nc4cccc(F)c4)[nH]n3)ncnc2c1)CCOP(=O)(O)O [Barasertib (AZD1152-HQPA)],1.74,0.477,0.564,-0.312
Cc1ccc(C(=O)c2cc(O)c(O)c([N+](=O)[O-])c2)cc1 [Tolcapone],1.41,0.113,0.183,0.919
OC(CNCC(O)C1CCc2cc(F)ccc2O1)C1CCc2cc(F)ccc2O1 (centres undefined) [Nebivolol],-1.26,-0.903,-0.627,-1.4
CCc1c(Cl)c(O)c(Cl)c(O)c1C(=O)O[C@H]1[C@H](O)[C@H](OC)[C@H](OC/C2=C\C=C\C[C@H](O)/C(C)=C/[C@H](CC)[C@@H](O[C@@H]3OC(C)(C)[C@@H](OC(=O)C(C)C)[C@H](O)[C@@H]3O)/C(C)=C/C(C)=C/C[C@@H]([C@@H](C)O)OC2=O)O[C@@H]1C [Fidaxomicin],0.76,-1.28,-0.524,0.24
COc1cc2ncnc(Nc3ccc(O)c(Br)c3)c2cc1OC,1.98,0.442,-0.537,0.77
CC(/C=C1\SC(=S)N(CC(=O)O)C1=O)=C\c1ccccc1 [Epalrestat],-0.121,-0.924,-0.907,-0.396
CC(C)OC(=O)[C@H](C)N[P@](=O)(OC[C@H]1O[C@@H](n2ccc(=O)[nH]c2=O)[C@](C)(F)[C@@H]1O)Oc1ccccc1 [Sofosbuvir (PSI-7977_ GS-7977)],1.25,-0.71,0.443,2.63
CCN(CC)C(=O)c1cccc(C)c1,-0.874,0.817,1.13,1.18
CC(=O)[C@H]1CC[C@H]2[C@@H]3C=CC4=CC(=O)CC[C@@]4(C)[C@@H]3CC[C@]12C [Dydrogesterone],0.555,-0.136,0.123,0.416
N=C(N)N/N=C/c1c(Cl)cccc1Cl [Guanabenz Acetate],-1.01,-0.286,-1.16,0.582
CC1(C)CCC(CN2CCN(c3ccc(C(=O)NS(=O)(=O)c4ccc(NCC5CCOCC5)c([N+](=O)[O-])c4)c(Oc4cnc5[nH]ccc5c4)c3)CC2)=C(c2ccc(Cl)cc2)C1,1.89,0.385,-0.272,0.0781
COc1cnc(NS(=O)(=O)c2ccc(N)cc2)nc1 [Sulfameter],0.0456,0.815,1.51,1.23
Cc1c(C(=O)Nc2ccc(N3C[C@@H](C)O[C@@H](C)C3)nc2)cccc1-c1ccc(OC(F)(F)F)cc1 [LDE225 (NVP-LDE225_Erismodegib)],2.24,-0.387,-0.593,0.679

# Some values from above.
# nucleus area z-score [1], Cn1ccnc1S [Methimazole] reads 0.677
# nucleus roundness z-score [3], COc1cnc(NS(=O)(=O)c2ccc(N)cc2)nc1 [Sulfameter] reads 1.51
